Some entries repeat one wording, which the source may state once for all of them.
Assay: PET/MR imaging
Type: in vivo
Settings: healthy C57Bl/6 male mice; for PET/MR imaging result (liver signal and background): dynamic 60 min PET after injection

Compound	PET/MR activity accumulation in the bone compared with [^68Ga]Ga-NODAGA-TriGalactan (dynamic 60 min PET)	PET/MR imaging result (liver signal and background)
O=C(O)CN1CCN(CC(=O)O)CCN(CC(=O)NCCCC(=O)NC(COCc2cn(CCOCCOCCO[C@@H]3O[C@H](CO)[C@H](O)[C@H](O)[C@H]3O)nn2)(COCc2cn(CCOCCOCCO[C@@H]3O[C@H](CO)[C@H](O)[C@H](O)[C@H]3O)nn2)COCc2cn(CCOCCOCCO[C@@H]3O[C@H](CO)[C@H](O)[C@H](O)[C@H]3O)nn2)CC1 [[^18F]AlF-NOTA-TriGalactan]	some increased activity accumulation in the bone	intensive liver signal and low background activity in the rest of the body
O=C(O)CN1CCN(CC(=O)O)CCN([C@H](CCC(=O)NCCCC(=O)NC(COCc2cn(CCOCCOCCO[C@@H]3O[C@H](CO)[C@H](O)[C@H](O)[C@H]3O)nn2)(COCc2cn(CCOCCOCCO[C@@H]3O[C@H](CO)[C@H](O)[C@H](O)[C@H]3O)nn2)COCc2cn(CCOCCOCCO[C@@H]3O[C@H](CO)[C@H](O)[C@H](O)[C@H]3O)nn2)C(=O)O)CC1 [[^68Ga]Ga-NODAGA-TriGalactan, metal not drawn]		intensive liver signal and low background activity in the rest of the body
CC(=O)N[C@H]1[C@H](OCCOCCOCCn2cc(CNC(=O)CCP(=O)([O-])CN3CCN(CP(=O)([O-])CCC(=O)NCc4cn(CCOCCOCCO[C@@H]5O[C@H](CO)[C@H](O)[C@H](O)[C@H]5NC(C)=O)nn4)CCN(CP(=O)([O-])CCC(=O)NCc4cn(CCOCCOCCO[C@@H]5O[C@H](CO)[C@H](O)[C@H](O)[C@H]5NC(C)=O)nn4)CC3)nn2)O[C@H](CO)[C@H](O)[C@@H]1O.[68Ga+3] [[^68Ga]Ga-TRAP-GalNAc]		intensive liver signal and low background activity in the rest of the body
